Laboratory results reported in PubChem BioAssay AID1259354 (Paczesny and Yang Labs, IUPUI and University of Michigan, 2018).
Hit rate of the full screen: of about 78,000 compounds, about 1,800 (2.3%) were called active. This list was built around the results that the source calls inconclusive (neither active nor inactive); the mix of calls is not that of the screen. Rule as the data show it: active = inhibition above about 30%; inconclusive = mostly about 10% to 28%; inactive = weaker than that.

The chains behind the UniProt entries cited, without tags or fusion partners. Where a name states a change or a piece, a line headed by the entry shows the natural chain unless it says otherwise.
UniProt Q01638: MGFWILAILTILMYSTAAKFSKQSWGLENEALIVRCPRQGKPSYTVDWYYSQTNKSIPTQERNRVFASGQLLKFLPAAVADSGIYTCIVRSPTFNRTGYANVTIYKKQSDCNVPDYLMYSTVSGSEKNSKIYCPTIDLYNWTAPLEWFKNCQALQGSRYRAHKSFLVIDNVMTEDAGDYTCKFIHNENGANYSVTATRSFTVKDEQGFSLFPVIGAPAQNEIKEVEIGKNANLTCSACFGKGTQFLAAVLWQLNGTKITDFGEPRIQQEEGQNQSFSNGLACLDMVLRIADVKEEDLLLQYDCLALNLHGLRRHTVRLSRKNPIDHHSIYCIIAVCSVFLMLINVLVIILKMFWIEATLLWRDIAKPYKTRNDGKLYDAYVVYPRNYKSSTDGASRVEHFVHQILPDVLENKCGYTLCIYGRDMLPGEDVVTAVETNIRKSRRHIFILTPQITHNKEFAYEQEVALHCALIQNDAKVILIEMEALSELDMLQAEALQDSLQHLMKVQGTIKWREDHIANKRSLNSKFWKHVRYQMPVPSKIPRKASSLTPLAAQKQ

What follows are molecules tested against Interleukin-1 receptor-like 1 (Homo sapiens) (UniProt Q01638) (assay: blocks human ST2 binding to IL-33, primary screen, biochemical, AlphaLISA (AID 1259354)). Settings: AlphaLISA ST2-Fc/biotin-IL-33 interaction, 1 h; at 17 µM, active compounds read high.
In the case of `Cc1cccc(-c2nsc(SCC(=O)NC3CCCC3)n2)c1`, the inhibition is reported as inconclusive: 10%.
`O=C(O)/C=C\C(=O)N1CCN(c2nc(-c3ccccc3)c3cc(Br)ccc3n2)CC1` was tested, and the inhibition was inconclusive: 13%.
`Nc1cc(C(=O)c2ccc(Cl)c(N)c2)ccc1Cl` was tested, and the inhibition was inconclusive: 13%.
`C=CCN(Cc1ccc(C)s1)C(=O)c1cnc2sc(C)c(C)n2c1=O` was tested, and the inhibition was inconclusive: 10%.
With `COc1ccc(CNC(=O)C2=C(C)C(=O)OC23CCN(S(=O)(=O)c2cccs2)CC3)cc1` the inhibition was “inactive”.
With `O=C(CSc1nnc2c(n1)[nH]c1ccccc12)N1CCCc2ccccc21` the inhibition was inconclusive: 13%.
With `CCc1ccccc1N1CSC2=C(C#N)C(c3ccccc3OC)CC(=O)N2C1` (centres undefined) the inhibition was “inactive”.
For `O=C(/C=C/c1ccc(F)c(F)c1)NCC1CCC2(CCN(C(=O)Cc3ccccc3)CC2)O1` (centres undefined), the inhibition was inconclusive: 15%.
In the case of `COc1cc(CN2C[C@H]3CC=CC[C@H]3C2)cc(OC)c1OC(C)C(=O)O` (some centres undefined), the inhibition is reported as “inactive”.
For `COc1cc(Cl)c(Nc2nc(-c3nnc(-c4ccc(C)cc4)o3)nc3ccccc23)c(OC)c1`, the inhibition was “inactive”.
With `Cn1c(C(=O)NC2CCCCCC2)cc2c(=O)n3ccccc3nc21` the inhibition was “inactive”.
With `CCN(CC)Cc1cnc2c(C(=O)N3CCC(c4ccccc4)CC3)cnn2c1` the inhibition was inconclusive: 16%.
`CCCCc1ncc(-c2c(-c3ccccc3)ncn2C2CCNC2)[nH]1` (centres undefined) was tested, and the inhibition was inconclusive: 12%.
For `COc1ccc(N=C2C(=O)N(CN3CCN(Cc4ccccc4)CC3)c3ccccc32)cc1`, the inhibition was inconclusive: 27%.
For `O=C(Nc1nc(-c2cc3ccccc3oc2=O)cs1)c1ccccc1Br`, the inhibition was “inactive”.
`COc1cc(C(=O)Nc2ccc3c(c2)ncn3-c2ccccc2)cc(OC)c1OC` was tested, and the inhibition was inconclusive: 21%.
With `Clc1ccc(-n2ncc3c(NCCN4CCOCC4)ncnc32)cc1` the inhibition was inconclusive: 12%.
With `O=C(c1cn(Cc2ccc(F)cc2Cl)nn1)N1CCCCC1c1ccc(F)cc1` (centres undefined) the inhibition was inconclusive: 10%.
With `O=c1[nH]c(-c2cccnc2)nc2c1CCN(S(=O)(=O)N1CCCC1)C2` the inhibition was inconclusive: 13%.
With `COc1ccc(CNC(=O)CCC2CCCN(C(=O)/C=C/c3cnc[nH]3)C2)c(OC)c1` (centres undefined) the inhibition was “inactive”.
`CC(=O)N(c1cc(C)cc(C)c1)C1C=CS(=O)(=O)C1` (centres undefined) was tested, and the inhibition was inconclusive: 12%.
With `Cc1nc(C(=O)O)cc2c1[nH]c1ccccc12` the inhibition was inconclusive: 11%.
With `CCCn1cnnc1C(C)NC(=O)c1cc(C)nc2ccc(C)cc12` (centres undefined) the inhibition was inconclusive: 10%.
For `Cc1cc(N2CCOCC2)nc(N2CCN(S(=O)(=O)c3cccc(Cl)c3)CC2)n1`, the inhibition was inconclusive: 22%.
`CC(=O)C1=C(C)OC(N)=C(C#N)C1c1cccc(OCc2ccccc2)c1` (centres undefined) was tested, and the inhibition was “inactive”.
For `CC(=O)Nc1c(C)ccc(CNC(=O)CSc2nc(-c3ccccc3)cs2)c1C`, the inhibition was inconclusive: 14%.
With `Cc1noc(C)c1CC(=O)N1CCC(CCC(=O)NCc2cccnc2)CC1` the inhibition was “inactive”.
With `Cc1c(Cl)cccc1Nc1nc(O)c(C2=c3cc(Br)ccc3=NC2=O)s1` the inhibition was inconclusive: 21%.
In the case of `O=C(Cn1c2ccccc2c(=O)c2ccccc21)Nc1ccccc1F`, the inhibition is reported as “inactive”.
With `CSc1ccc(CNc2nc(-c3nnc(-c4ccc(F)cc4)o3)nc3ccccc23)cc1` the inhibition was inconclusive: 16%.
With `CC[n+]1c(/C=C/c2ccc(N(C)C)cc2)ccn1-c1ccccc1` the inhibition was inconclusive: 22%.
For `CCOC(=O)CNC(=O)C1Cc2ccccc2CN1S(=O)(=O)c1cccs1` (centres undefined), the inhibition was inconclusive: 10%.
With `COc1ccc(NC(=O)C(Cc2ccc([N+](=O)[O-])cc2)N2C(=O)c3ccccc3C2=O)cc1` (centres undefined) the inhibition was inconclusive: 14%.
`O=C(NCCn1cc(SCc2ccccc2)c2ccccc21)c1ccccc1F` was tested, and the inhibition was inconclusive: 18%.
With `CC1=CC2/C=C(\C)CCC(O)C/C=C/C(=O)OC23C(=O)NC(CC(C)C)C3C1C` (centres undefined) the inhibition was inconclusive: 16%.
With `CC(C)C1N=C2c3ccccc3N=C(SCC#N)N2C1=O` (centres undefined) the inhibition was inconclusive: 10%.
In the case of `O=C(CN1CCN(Cc2ccc(F)cc2)C1=O)NC1CCCCC1`, the inhibition is reported as “inactive”.
With `CCOC(=O)C1(CCCc2ccccc2)CCN(C(=O)[C@@H]2C[C@H]2c2ccccc2)CC1` the inhibition was inconclusive: 16%.
In the case of `COc1ccc(N2COc3ccc(Cl)cc3C2)cc1`, the inhibition is reported as active: 37%.
`CC1CN(C2=NC(=O)C(=C3CCCCC3)S2)CC(C)O1` (centres undefined) was tested, and the inhibition was inconclusive: 10%.
In the case of `COc1ccc(C(=O)C2CCCN(C(=O)c3cc4ccccc4oc3=O)C2)cc1OC` (centres undefined), the inhibition is reported as inconclusive: 14%.
`CCOc1cc(/C=C2\OC(=O)c3c2cc(C)[nH]c3=O)ccc1O` was tested, and the inhibition was “inactive”.
`O=C(CCc1ccccc1)Nc1ccnn1C1CCN(C(=O)c2n[nH]c3c2CCCC3)CC1` was tested, and the inhibition was inconclusive: 14%.
In the case of `O=C(c1cn(CCC2CCCCC2)nn1)N1CCCCC1c1nccs1` (centres undefined), the inhibition is reported as “inactive”.
In the case of `CC(NC1CCSCC1)c1ccc(-n2cncn2)cc1` (centres undefined), the inhibition is reported as “inactive”.
For `O=C1C2C3c4ccccc4C([N+](=O)[O-])(c4ccccc43)C2C(=O)N1CCOCc1ccccc1` (centres undefined), the inhibition was inconclusive: 10%.
With `Cc1cccc(-n2cc(CN3CCN(C(=O)c4ccco4)CC3)c(-c3cccc(F)c3)n2)c1` the inhibition was inconclusive: 14%.
`COc1ccccc1OCC(O)CN1CCN(CC(=O)Nc2c(C)cccc2C)CC1` (centres undefined) was tested, and the inhibition was inconclusive: 12%.
For `C1=C2C3CCCCC3OC(c3cccnc3)C2CCC1` (centres undefined), the inhibition was “inactive”.
For `Cc1cccnc1CN1CCC(N2CCCC2=O)CC1`, the inhibition was inconclusive: 24%.
With `OCCn1cnc(-c2ccccc2)c1-c1cc(CN2CCCC2)cs1` the inhibition was inconclusive: 22%.
`CCc1ccc(CN2CCN(S(=O)(=O)c3ccc(Cl)cc3)CC2)cc1` was tested, and the inhibition was “inactive”.
`CN(C(=O)CSc1nc2ccccc2c(=O)n1-c1ccccc1)c1ccccc1` was tested, and the inhibition was inconclusive: 12%.
`CCOc1ccc(C=Nc2c(C)n(C)n(-c3ccccc3)c2=O)cc1` was tested, and the inhibition was inconclusive: 11%.
For `O=C(Nc1nc2ccc3ccccc3c2s1)c1cccc(N2C(=O)CCC2=O)c1`, the inhibition was “inactive”.
`COc1cc(NC(=O)NC[C@H]2O[C@@H](CO)[C@@H](O)[C@H]2N2CCOCC2)cc(OC)c1` was tested, and the inhibition was inconclusive: 18%.
In the case of `O=C(O)c1ccc(S(=O)(=O)N2CCCC2)cc1`, the inhibition is reported as active: 35%.
`C=CC[C@@H]1CC=C[C@@H](C)N1C(=O)C(=O)c1ccco1` was tested, and the inhibition was inconclusive: 17%.
In the case of `O=c1/c(=C/c2ccncc2)sc2n1CN(c1ccc([N+](=O)[O-])cc1)CN=2`, the inhibition is reported as inconclusive: 11%.
